In PubChem BioAssay AID485353 (National Center for Advancing Translational Sciences (NCATS), 2010):
Out of some 330,000 compounds screened, about 610 (0.18%) were called active. The inconclusive results got no clear call from the source; some entries with a clear call stand among them for comparison. Calls follow the shape of the full dose curve. Potencies beside an inconclusive call are fits to weak or partial responses and may not hold up.

Assay: qHTS of Yeast-based Assay for SARS-CoV PLP; also: nearly all actives have a fitted effect of over 55% in size; as to activity, positive = growth rescue: 0% is about no effect
Settings: S. cerevisiae expressing SARS-CoV PLpro; Potency: growth rescue; activity, positive = growth rescue: at 32.9 µM (top of the series)
Potency is read from the fitted curve at half-maximal effect.

Row | Compound | activity, positive = growth rescue | Potency
1 | O=C(COc1ccccc1)Nc1nc(-c2ccncc2)cs1 | inactive: -0.264% | –
2 | CCN1CC(CNC(=O)c2ccc3nc(Cc4cccc(Cl)c4)oc3c2)CC1=O (centres undefined) | – | inconclusive: 12.6 µM [activator, single point]
3 | Oc1c(C(Nc2cccc(C(F)(F)F)c2)c2cccnc2)ccc2cccnc12 (centres undefined) | – | inconclusive: 3.98 µM [activator, single point]
4 | Cc1ccc(CNCCCSc2ncccn2)cc1 | – | inconclusive: 0.891 µM [activator, full curve]
5 | CC1CCN(C(=S)NC(=O)c2cccc([N+](=O)[O-])c2)CC1 | – | inconclusive: 11.2 µM [activator, partial curve]
6 | Cc1ccc(C)c(CSc2ncccc2C(=O)O)c1 | – | inconclusive: 20 µM [activator, single point]
7 | Cc1ccc(-n2c(O)c(/C=N/NC(=O)C3COc4ccccc4O3)c3ccccc3c2=O)cc1 (centres undefined) | – | inconclusive: 20 µM [activator, single point]
8 | CC(OC(=O)c1cc2c(s1)CCCCC2)C(=O)NC(N)=O (centres undefined) | inactive: 29.4% | –
9 | COC(=O)c1ccc(Cl)c(NC(=O)CN(c2ccccc2)S(=O)(=O)c2ccc(OC)cc2)c1 | – | inconclusive: 11.2 µM [activator, single point]
10 | Cc1ccc(OCC(=O)c2cc(C)n(C3CC3)c2C)c([N+](=O)[O-])n1 | – | inconclusive: 10 µM [activator, partial curve]
11 | CCCC(=O)N(CCN1CCOCC1)c1nc2c(OC)ccc(C)c2s1 | inactive: -3.45% | –
12 | COc1ccc(NC(=O)N(C)C[C@H]2Oc3c(NC(=O)C4CC4)cccc3C(=O)N([C@H](C)CO)C[C@@H]2C)cc1 | – | inconclusive: 20 µM [activator, single point]
13 | Cn1cccc1CC(=O)N/N=C/C(Cl)=C/c1ccccc1 | – | inconclusive: 4.47 µM [activator, single point]
14 | C=CCC(NCc1ccccc1)c1ccccc1 (centres undefined) | – | inconclusive: 5.01 µM [activator, partial curve, poor fit]
15 | CC(C)c1nc2cc(C(=O)N(C)C3CCOCC3)ccc2o1 | – | inconclusive: 3.16 µM [activator, single point]
16 | CC(C)(C)C1CC=C2C(C#N)=C(N)C(C#N)(C#N)C(c3cccs3)C2C1 (centres undefined) | inactive: -0.863% | –
17 | Cc1cc(C)n2ncc(C(=O)NCc3cccnc3)c2n1 | inactive: 2.66% | –
18 | CCC1(c2ccccc2)NC(=S)N(c2cccc(C)c2C)N1 (centres undefined) | – | active: 3.16 µM
19 | C/C(=N\N1CCCCC1)c1c(O)[nH]c(=O)[nH]c1=O | – | inconclusive: 0.355 µM [activator, full curve, poor fit]
20 | CCCC(=O)NC(Nc1ccccc1OC)C(Cl)(Cl)Cl (centres undefined) | – | inconclusive: 2.82 µM [activator, full curve]
21 | Fc1ccc(NC(=S)N/N=C/c2ccc(F)c(F)c2)c(F)c1 | – | inconclusive: 22.4 µM [activator, single point]
22 | COc1ccc(-c2cc3c(=O)n(CC(=O)NCCCN4CCC(Cc5ccccc5)CC4)ncn3n2)cc1 | – | inconclusive: 17.8 µM [activator, single point]
23 | COc1ccc(NC(=S)N(Cc2ccc(C)cc2)Cc2ccccn2)cc1 | inactive: -7.26% | –

Rewritten comma-delimited: part of the list above.
Row,Compound,"activity, positive = growth rescue",Potency
6,Cc1ccc(C)c(CSc2ncccc2C(=O)O)c1,–,"inconclusive: 20 µM [activator, single point]"
19,C/C(=N\N1CCCCC1)c1c(O)[nH]c(=O)[nH]c1=O,–,"inconclusive: 0.355 µM [activator, full curve, poor fit]"

Continuation:

Row | Compound | activity, positive = growth rescue | Potency
24 | CCCNC(=O)c1ccc2c(=O)c(O)c(-c3cccc(Br)c3)[nH]c2c1 | – | inconclusive: 2.82 µM [activator, partial curve]
25 | CCC(C)C(=O)Nc1cc(C(=O)OC)ccc1C(=O)OC (centres undefined) | – | inconclusive: 4.47 µM [activator, full curve]
26 | Cc1cc(C)nc(SCc2nnc(SCC(=O)Nc3nc(-c4ccccc4)cs3)n2C)n1 | – | inconclusive: 3.98 µM [activator, full curve]
27 | COc1ccc(NC(=S)NCc2ccc3c(c2)cc(C)n3C)cc1 | – | inconclusive: 20 µM [activator, single point]
28 | CCCCNC(=O)c1cccc2c(=O)c(C)c(-c3ccccc3)oc12 | inactive: 8.78% | –
29 | CCOC(=O)c1ccc(Nc2cc(C)nc(C)c2C(=O)OCC)cc1 | inactive: -4.03% | –
30 | COc1ccc(N2CCN(C(=O)CN(c3cccc(OC)c3)S(=O)(=O)c3ccccc3)CC2)cc1 | – | inconclusive: 11.2 µM [activator, single point]
31 | CC(C)(C)NS(=O)(=O)c1ccc(CCC(=O)N2CCOCC2)cc1 | – | inconclusive: 11.2 µM [activator, partial curve]
32 | CC(C)(C)c1ccc(C(=O)N/C(N)=N/c2nc3ccccc3o2)cc1 | – | inconclusive: 20 µM [activator, single point]
33 | CCc1cc(=O)oc2cc(OCC(=O)N3CCC(C(=O)O)CC3)ccc12 | – | inconclusive: 2.82 µM [activator, single point]
34 | C/C(=N/Nc1ccc(C(=O)O)cc1)c1ccc(O)c(O)c1O | inactive: 10.7% | –
35 | CCOC(=O)C(Cc1ccccc1)NC(=O)CCc1nnc2ccc(N3CCCC3)nn12 (centres undefined) | inactive: 0.723% | –
36 | COCCN1C(=O)N(c2cccc(OC)c2)C(=O)C1CC(=O)Nc1cccc(F)c1 (centres undefined) | inactive: -9.52% | –
37 | CCOc1ccc(C2C3=C(CC(C)(C)CC3=O)N(CC(=O)O)C3=C2C(=O)CC(C)(C)C3)cc1OCC | – | inconclusive: 4.47 µM [activator, partial curve]
38 | Cc1ccccc1OCC(=O)Nc1ccncc1 | – | inconclusive: 3.55 µM [activator, single point]
39 | COCCn1c(CCC(=O)O)nc2c1c(=O)[nH]c(=O)n2CC(C)C | – | inconclusive: 14.1 µM [activator, single point]
40 | CCc1nc2ccccc2c(=O)n1NCCc1ccccc1 | inactive: 11.5% | –
41 | CC1=CC(C)(C)Nc2ccc(OC(=O)CCN3C(=O)c4ccccc4C3=O)cc21 | – | inconclusive: 11.2 µM [activator, single point]
42 | CCC(=O)NC(=S)NNC(=O)c1ccccc1[N+](=O)[O-] | – | inconclusive: 2.24 µM [activator, partial curve]
43 | Cc1ccc(C(=O)C(OC(=O)CNC(=O)c2ccc(Cl)cc2)c2ccccc2)cc1 (centres undefined) | – | inconclusive: 20 µM [activator, single point]
44 | O=C(CSc1nnc(NC(=O)C2CC2)s1)NCc1ccccc1Cl | – | inconclusive: 20 µM [activator, single point]
45 | CCCCOc1cccc(C(=O)NNC(=S)NC2CCCCC2)c1 | – | inconclusive: 2.82 µM [activator, full curve, poor fit]
46 | COc1ccc2c(c1)CCc1cnc(N)nc1-2 | inactive: 0.463% | –

Row | Compound | activity, positive = growth rescue | Potency
47 | Cc1ccc(S(=O)(=O)NC2c3cccc4cccc(c34)C2Sc2n[nH]c(N)n2)cc1 (centres undefined) | – | inconclusive: 20 µM [activator, single point]
48 | Cc1ccc(C(C(=O)NCc2ccccc2)N(Cc2cccs2)C(=O)c2ccc3c(c2)OCCO3)cc1 (centres undefined) | – | inconclusive: 2.82 µM [activator, single point]
49 | CC(Sc1cccc[n+]1[O-])C(=O)Nc1cccc(S(=O)(=O)N2CCOCC2)c1 (centres undefined) | – | inconclusive: 10 µM [activator, single point]
50 | O=C(c1ccc(S(=O)(=O)c2ccccc2)cc1)N1CCCCCC1 | – | inconclusive: 5.01 µM [activator, partial curve]
51 | CC(C)OC(=O)c1c(NC(=O)CCn2nnc3ccccc32)sc2c1CCCC2 | – | inconclusive: 17.8 µM [activator, single point]
52 | COc1ccc(C(C)=O)cc1CSc1nnc(Nc2c(C)cccc2C)s1 | inactive: 21.2% | –
53 | CCC(Sc1nc2n[nH]c(C)c2c(=N)n1-c1cc(Cl)ccc1C)C(=O)N1CCOCC1 (centres undefined) | – | inconclusive: 20 µM [activator, single point]
54 | O=C(CCc1nnc2ccc(NCc3ccco3)nn12)N1CCN(c2ccccc2F)CC1 | inactive: 0.28% | –
55 | CCCOC(=O)C1=C(C)N(C)C(=O)NC1c1cc2c(cc1[N+](=O)[O-])OCO2 (centres undefined) | – | inconclusive: 20 µM [activator, single point]
56 | CCOc1ccc(N=c2scc(-c3ccccc3)n2CCO)cc1 | inactive: -10.5% | –
57 | O=C(Nc1ccc2c(c1)OCO2)c1cn(Cc2ccc(F)cc2)nn1 | – | inconclusive: 3.98 µM [activator, single point]
58 | CCOc1cc2[nH]c(=S)n(Cc3ccc(C(=O)NCC(OC)OC)cc3)c(=O)c2cc1OCC | – | inconclusive: 2.82 µM [activator, single point]
59 | Cc1ccc(N(C(C)C(=O)Nc2cc(Cl)ccc2Oc2ccccc2)S(C)(=O)=O)cc1 (centres undefined) | inactive: 3.03% | –
60 | CCOC(=O)/C(C#N)=C1/C=CN(c2ccccc2)C=N1 | – | inconclusive: 12.6 µM [activator, single point]
61 | CCC(=O)N1c2ccc(S(=O)(=O)CCC(=O)N3CCN(c4ccccc4)CC3)cc2CC1C (centres undefined) | – | inconclusive: 12.6 µM [activator, single point]
62 | COC(=O)c1sc2nc(SCc3cccc(Cl)c3)n(N)c(=O)c2c1C | – | inconclusive: 0.316 µM [activator, full curve, poor fit]
63 | Cc1ccc(-n2[nH]c(C)c(/C=N/NC(=O)c3ccc([N+](=O)[O-])cc3)c2=O)c(C)c1 | – | inconclusive: 0.708 µM [activator, full curve, poor fit]
64 | COC(=O)C1=C(CSc2nncn2C)NC(=O)NC1c1ccc(F)cc1 (centres undefined) | inactive: 0.0054% | –
65 | NC(=O)c1sc2nccc(Nc3ccccc3)c2c1N | inactive: -6.61% | –
66 | c1cn2c(NC3CCCC3)c(-c3ccc(N4CCOCC4)cc3)nc2cn1 | inactive: -3.23% | –
67 | Cc1ccc(OCc2cc(C(=O)N(C)CCc3ccccn3)no2)cn1 | inactive: -1.73% | –
68 | O=C(NNC(=O)C1CCN(S(=O)(=O)c2ccccc2)CC1)c1ccccc1O | – | inconclusive: 22.4 µM [activator, single point]
69 | Cc1cccc(NC(=O)COC(=O)c2cc3ccccc3oc2=O)c1 | inactive: 0.519% | –

Some of these compounds in order of heavy-atom count, falling:
Row | Compound | activity, positive = growth rescue | Potency
63 | Cc1ccc(-n2[nH]c(C)c(/C=N/NC(=O)c3ccc([N+](=O)[O-])cc3)c2=O)c(C)c1 | – | inconclusive: 0.708 µM [activator, full curve, poor fit]
49 | CC(Sc1cccc[n+]1[O-])C(=O)Nc1cccc(S(=O)(=O)N2CCOCC2)c1 (centres undefined) | – | inconclusive: 10 µM [activator, single point]
60 | CCOC(=O)/C(C#N)=C1/C=CN(c2ccccc2)C=N1 | – | inconclusive: 12.6 µM [activator, single point]
